Binding data for 7 molecules are collected here from US20180265594A1.

T1: human VpreB1 (human) (UniProt P12018)
T1 sequence: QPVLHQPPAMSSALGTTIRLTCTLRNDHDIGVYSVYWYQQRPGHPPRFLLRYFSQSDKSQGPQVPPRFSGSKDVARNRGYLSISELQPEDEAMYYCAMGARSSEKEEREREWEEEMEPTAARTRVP

B1: 2462VpreBlam5E08 (Fab, V domains shown)
VH: EVQLLESGGGLVQPGGSLRLSCAASGFTFSSYGMNWVRQAPGKGLEWVATINYSGTSKYYADSVKGRFTISRDNSKNTLYLQMNSLRAEDTAVYYCARDRYKSYTYALDYWGQGTLVTVSS
VL: SSELTQDPAVSVALGQTVRITCQGDSLRKKYVYWYQQKPGQAPVLVIYKDNNRPSGIPDRFSGSSSGNTASLTITGAQAEDEADYYCNSWDSSSAHYVFGGGTKLTVL
B2: 2462VpreBlam5D05 (Fab, V domains shown)
VH: QVQLVQSGAEVKKPGSSVKVSCKASGGTFSNYAISWVRQAPGQGLEWMGWISPFSGGTNYAQKFQGRVTITADKSTSTAYMELSSLRSEDTAVYYCARGQWWYGDAFDYWGQGTLVTVSS
VL: QSALTQPASVSGSPGQSITISCTGTSSDVGGYNYVSWYQQHPGKAPKLIIYDVTKRPSGVSNRFSGSKSGNTASLTISGLQAEDEADYYCCSYTGTSNFVFGGGTKLTVL
B3: 2462VpreBlam5C05 (Fab, V domains shown)
VH: EVQLVESGGGLVKPGGSLRLSCAASGFTFSDYGMSWVRQAPGKGLEWVSGISWNGGTTNYADSVKGRFTISRDNAKNSLYLQMNSLRAEDTAVYYCARSGGAFYLSGLDYWGQGTLVTVSS
VL: QSALTQPASVSGSPGQSITISCTGTSSDVGSYNYVSWYQQHPGKAPKLMIYEVTNRPSGVSNRFSGSKSGNTASLTISGLQAEDEADYYCSSYASSSNLVFGGGTKLTVL
B4: 2463VpreBlam5C04 (Fab, V domains shown)
VH: QVQLVQSGAEVKKPGASVKVSCKASGYTFSSYGMSWVRQAPGQGLEWMGWINANSGGTSYAQKFQGRVTMTRDTSISTAYMELSRLRSDDTAVYYCARDDGGAYVYWGQGTLVTVSS
VL: QSALTQPASVSGSPGQSITISCTGTSSDVGGYNYVSWYQQHPGKAPKLIIYDVTNRPSGVSNRFSGSKSGNTASLTISGLQAEDEADYYCSSYTGSSSYVFGGGTKLTVL
B5: 2463VpreBlam5B05 (Fab, V domains shown)
VH: QVQLVQSGAEVKKPGSSVKVSCKASGGTFTAYAINWVRQAPGQGLEWMGGINVGFGGANYAQKFQGRVTITADKSTSTAYMELSSLRSEDTAVYYCARDDYWTSVYWGQGTLVTVSS
VL: DIQMTQSPSSLSASVGDRVTITCRASQGISNYLAWFQQKPGKAPKSLIYAASSLQSGVPSRFSGSGSGTDFTLTISSLQPEDFATYYCQQYNSYPLTFGGGTKVEIK
B6: 2463VpreBlam5D07 (Fab, V domains shown)
VH: QVQLVQSGAEVKKPGASVKVSCKASGYTFSGYGMHWVRQAPGQGLEWMGWINPISGTATYAQKFQGRVTMTRDTSISTAYMELSRLRSDDTAVYYCAKDLIGWISHSYNGDYWGQGTLVTVSS
VL: DIQMTQSPSSLSASVGDRVTITCRASQGISNYLAWFQQKPGKAPKSLIYAASTLESGVPSRFSGSGSGTDFTLTISSLQPEDFATYYCQQYNSYPLTFGGGTKVEIK
B7: 2460VpreBlam5B04 (Fab, V domains shown)
VH: EVQLVESGGGLVKPGGSLRLSCAASGFTFSNFEMNWVRQAPGKGLEWVSGISSNGRYINYADSVKGRFTISRDNAKNSLYLQMNSLRAEDTAVYYCARVVDFDQDYNGFDYWGQGTLVTVSS
VL: DIQLTQSPSFLSASVGDRVTITCRASQGISTDLNWYQQKPGKAPKLLIYAASNLESGVPSRFSGSGSGTEFTLTISSLQPEDFATYYCQQSYNWPYTFGGGTKVEIK

Results are given in words; binding and its absence hold for the method and conditions named. Some results given as binding are weak or reduced against the parent protein; the word gives no strength.

In this experiment the target is T1, human VpreB1 (human). In words: ELISA of phage Fab clones against human VpreB1. A general note: ELISA stands for enzyme-linked immunosorbent assay.
Take B1: the binding entry is “binds”. For B2, the binding result is reported as “binds”. For the molecule B3, the binding entry was “binds”. B4: the binding result is reported as “binds”.

In the case of B5, the binding result is on record as “binds”. The same measure for B6: “binds”; for B7: “binds”.
